Results are given in words; binding and its absence hold for the method and conditions named. Binding seen in cells or lysates may run through a third protein. Here binding means that the protein was enriched with, or labelled near, the bait; the list need not be complete.
Molecular target: DDX6 (human (endogenous in HeLa)) (UniProt P26196)
Test: affinity purification with mass spectrometry; anti-DDX6 immunoprecipitation from a nuclear extract (HeLa); SDS-PAGE, silver staining, six regions of the gel cut out, LC-MS/MS

Protein sequences, listed by entry. Tags and fused reporters are not part of them.
UniProt P26196: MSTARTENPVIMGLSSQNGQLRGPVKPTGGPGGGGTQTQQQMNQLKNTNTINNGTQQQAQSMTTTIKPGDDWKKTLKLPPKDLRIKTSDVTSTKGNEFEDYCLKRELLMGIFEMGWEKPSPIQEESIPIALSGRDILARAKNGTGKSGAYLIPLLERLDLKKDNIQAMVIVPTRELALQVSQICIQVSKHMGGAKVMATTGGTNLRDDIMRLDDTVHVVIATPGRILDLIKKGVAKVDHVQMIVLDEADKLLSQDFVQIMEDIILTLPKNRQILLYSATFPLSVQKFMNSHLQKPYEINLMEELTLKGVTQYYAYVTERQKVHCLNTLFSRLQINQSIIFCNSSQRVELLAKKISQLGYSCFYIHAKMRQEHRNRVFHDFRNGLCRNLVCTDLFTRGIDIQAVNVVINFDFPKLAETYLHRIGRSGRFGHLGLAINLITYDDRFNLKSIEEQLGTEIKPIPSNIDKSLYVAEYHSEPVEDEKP

binding: binds
B1: adenosine deaminases that act on RNA 1 (ADAR1) (protein, UniProt P55265-5 1-931)
chain: MAEIKEKICDYLFNVSDSSALNLAKNIGLTKARDINAVLIDMERQGDVYRQGTTPPIWHLTDKKRERMQIKRNTNSVPETAPAAIPETKRNAEFLTCNIPTSNASNNMVTTEKVENGQEPVIKLENRQEARPEPARLKPPVHYNGPSKAGYVDFENGQWATDDIPDDLNSIRAAPGEFRAIMEMPSFYSHGLPRCSPYKKLTECQLKNPISGLLEYAQFASQTCEFNMIEQSGPPHEPRFKFQVVINGREFPPAEAGSKKVAKQDAAMKAMTILLEEAKAKDSGKSEESSHYSTEKESEKTAESQTPTPSATSFFSGKSPVTTLLECMHKLGNSCEFRLLSKEGPAHEPKFQYCVAVGAQTFPSVSAPSKKVAKQMAAEEAMKALHGEATNSMASDNQPEGMISESLDNLESMMPNKVRKIGELVRYLNTNPVGGLLEYARSHGFAAEFKLVDQSGPPHEPKFVYQAKVGGRWFPAVCAHSKKQGKQEAADAALRVLIGENEKAERMGFTEVTPVTGASLRRTMLLLSRSPEAQPKTLPLTGSTFHDQIAMLSHRCFNTLTNSFQPSLLGRKILAAIIMKKDSEDMGVVVSLGTGNRCVKGDSLSLKGETVNDCHAEIISRRGFIRFLYSELMKYNSQTAKDSIFEPAKGGEKLQIKKTVSFHLYISTAPCGDGALFDKSCSDRAMESTESRHYPVFENPKQGKLRTKVENGEGTIPVESSDIVPTWDGIRLGERLRTMSCSDKILRWNVLGLQGALLTHFLQPIYLKSVTLGYLFSQGHLTRAICCRVTRDGSAFEDGLRHPFIVNHPKVGRVSIYDSKRQSGKTKETSVNWCLADGYDLEILDGTRGTVDGPRNELSRVSKKNIFLLFKKLCSFRYRRDLLRLSYGEAKKAARDYETAKNYFKKGLKDMGYGNWISKPQEEKNFYLCPV

— paper PMC9965400
